Laboratory results taken from paper PMC6237804.
Construct, isoform or probe ends are uncertain for at least one entry. At least one verdict was read from the data and is not stated in words by the source.

Amino acid sequences for entries named in this document (tags omitted). Residues count along the entry.
UniProt P0A7G6, 2-337, stated change not applied: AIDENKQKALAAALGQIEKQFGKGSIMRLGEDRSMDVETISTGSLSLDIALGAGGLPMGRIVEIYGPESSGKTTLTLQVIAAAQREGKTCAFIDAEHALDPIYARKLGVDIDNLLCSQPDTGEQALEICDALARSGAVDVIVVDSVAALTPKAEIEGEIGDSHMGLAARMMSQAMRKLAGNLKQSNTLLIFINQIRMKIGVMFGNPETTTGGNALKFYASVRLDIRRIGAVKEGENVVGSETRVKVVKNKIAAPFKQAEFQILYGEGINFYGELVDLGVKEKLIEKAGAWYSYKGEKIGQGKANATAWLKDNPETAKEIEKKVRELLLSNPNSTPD

Biological target: RecA-wtΔC (UniProt P0A7G6)
Assay: EMSA
Conditions: 4.5 uM (nt) ssDNA or 9.0 uM dsDNA, agarose gel, no fixation, 6-MI: 25 mM Tris-HCl pH 7.5, 10 mM MgCl2, recombinant protein, label: FAM, single-stranded DNA

Measured: binding result

AAATCAATCTAAAGTATATATGAGTAAACTTGGTCTGACAGTTACCAATGCTTAATCAGTGAGGCACCTATCTCAGCGATCTGTCTATTT [OL2 90-mer ssDNA]
binds: 1.3 mM ATP | 1.3 mM ATPgS | no nucleotide cofactor
